Results from patent US20260088132A1, “CHEMICAL PAINTING” (The Trustees of Columbia University in the City of New York, priority 2023, published 2026).
At least one compound was matched to its structure with a doubt left.

Test system: MDA-MB-231 cells
Assay: Novelty detection of drug MoA on single-cell Chemical Painting data (LDA, Mahalanobis distance, isolation forest)
Assay type: cell-based, human
Conditions: test compounds; MoA predicted as known class or novel
Description: We specifically designed an algorithm for Chemical Painting to identify drugs with novel MoAs, using the dataset and model in drug MoA prediction as an annotated reference. In this algorithm, the first step is to calculate the Mahalanobis distance between single-cell data from test compound and each reference class in the trained LDA model. The class with the minimum distance represents the known drug closest to the test compound. Next, isolation forest, is introduced to determine whether the test compound is novel to the selected known drug class. The prediction output in this step is 1 as inliers (known) and −1 as outliers (novel) for each single-cell data from the test compound. […] Test compound with a mean prediction score below the threshold value is detected as novel.
Sample preparation for drug-treated cells with labeling. MDA-MB-231 cells were seeded on clean CaF2 substrates with 5×10^4 cells per well in cell culture media (DMEM, 10% FBS, 1% penicillin) overnight. […]
FTIR imaging. […] Cell spectra were recorded using 64-128 scans at 8 cm-1 spectral resolution. […]
Machine learning. […] The performances of these classifiers were evaluated in the testing dataset using accuracy as the main metric. […]
Novelty detection algorithm. In the first step, the Mahalanobis distances between the test compound and each reference class in the annotated dataset were calculated by home-built codes in python. […]

CCC(=O)CCCCC[C@@H]1NC(=O)[C@H]2CCCCN2C(=O)[C@H]([C@@H](C)CC)NC(=O)[C@H](Cc2cn(OC)c3ccccc23)NC1=O [Apicidin]
Prediction: Novel
